No constants are given. Whether binding was seen depends on the method and setting. Binding seen in cells or lysates may run through a third protein. Binding can be weak; no strength is given. Where a sequence is shown, tags or fusion partners need not be part of it.
Molecular target: V5-tagged PVT1-MP (human)
Experiment: proximity ligation; Duolink in situ PLA in fixed HeLa cells co-overexpressing PVT1-MP-V5 and SRSF2-FLAG; anti-V5 rabbit and anti-FLAG mouse antibodies; controls with single or no primary antibody and untransfected cells

- binding: binds
B1: FLAG-tagged SRSF2 (protein, UniProt Q01130 1-221)
chain: MSYGRPPPDVEGMTSLKVDNLTYRTSPDTLRRVFEKYGRVGDVYIPRDRYTKESRGFAFVRFHDKRDAEDAMDAMDGAVLDGRELRVQMARYGRPPDSHHSRRGPPPRRYGGGGYGRRSRSPRRRRRSRSRSRSRSRSRSRSRYSRSKSRSRTRSRSRSTSKSRSARRSKSKSSSVSRSRSRSRSRSRSRSPPPVSKRESKSRSRSKSPPKSPEEEGAVSS
